The other results are listed elsewhere or left out.
Tests used:
Test in all cases: log2 fold change, soluble protein after heating vs DMSO (PISA); higher = thermal stabilisation; K562 lysate, 10 uM; active = over 0.2 and 3.5 SD of the protein, either way, in both replicates (recomputed)
alvocidib = compound: CN1CC[C@H](c2c(O)cc(O)c3c(=O)cc(-c4ccccc4Cl)oc23)[C@H](O)C1 [alvocidib]
Summary of the method: (§1)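 K562 pellets were dounce-homogenised in PBS pH 7.4 containing 1 mM MgCl2, and the crude extract, at 1 mg/mL protein, was exposed to 10 μM compound for 30 min. Aliquots were heated for 3 min across 48°C-58°C, pooled, brought to 0.5% NP-40 at 4°C and spun at 21,000xg for 90 min, with the supernatant taken as soluble protein. TMTpro 16plex LC-MS/MS with equalised channel sums quantified that protein. Values are log-two fold changes in thermal stability relative to solvent controls, taken from duplicates.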

Protein sequences, listed by entry. Tags and fused reporters are not part of them. Lines headed by an entry give the natural chain unless they say otherwise; changes in a name come on top.
UniProt Q99988: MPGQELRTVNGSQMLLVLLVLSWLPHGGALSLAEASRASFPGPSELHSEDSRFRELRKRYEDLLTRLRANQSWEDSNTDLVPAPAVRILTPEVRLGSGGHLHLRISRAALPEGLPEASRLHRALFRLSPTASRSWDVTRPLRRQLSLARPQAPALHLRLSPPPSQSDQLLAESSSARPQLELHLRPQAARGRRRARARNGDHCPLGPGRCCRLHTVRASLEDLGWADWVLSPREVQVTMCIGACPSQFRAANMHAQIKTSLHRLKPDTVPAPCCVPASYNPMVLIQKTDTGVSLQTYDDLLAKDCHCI
UniProt Q3B7J2: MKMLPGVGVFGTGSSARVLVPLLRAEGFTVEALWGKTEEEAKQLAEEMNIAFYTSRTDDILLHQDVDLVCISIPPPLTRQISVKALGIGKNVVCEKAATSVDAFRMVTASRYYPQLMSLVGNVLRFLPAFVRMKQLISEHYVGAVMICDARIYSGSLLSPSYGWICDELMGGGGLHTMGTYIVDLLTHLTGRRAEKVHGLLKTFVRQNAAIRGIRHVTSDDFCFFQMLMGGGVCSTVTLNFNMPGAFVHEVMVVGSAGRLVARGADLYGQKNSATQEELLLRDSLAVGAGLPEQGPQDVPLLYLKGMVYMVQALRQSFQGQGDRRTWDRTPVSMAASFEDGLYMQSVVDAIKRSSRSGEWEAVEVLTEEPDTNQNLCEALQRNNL
UniProt Q5JV73, whole entry, looked up: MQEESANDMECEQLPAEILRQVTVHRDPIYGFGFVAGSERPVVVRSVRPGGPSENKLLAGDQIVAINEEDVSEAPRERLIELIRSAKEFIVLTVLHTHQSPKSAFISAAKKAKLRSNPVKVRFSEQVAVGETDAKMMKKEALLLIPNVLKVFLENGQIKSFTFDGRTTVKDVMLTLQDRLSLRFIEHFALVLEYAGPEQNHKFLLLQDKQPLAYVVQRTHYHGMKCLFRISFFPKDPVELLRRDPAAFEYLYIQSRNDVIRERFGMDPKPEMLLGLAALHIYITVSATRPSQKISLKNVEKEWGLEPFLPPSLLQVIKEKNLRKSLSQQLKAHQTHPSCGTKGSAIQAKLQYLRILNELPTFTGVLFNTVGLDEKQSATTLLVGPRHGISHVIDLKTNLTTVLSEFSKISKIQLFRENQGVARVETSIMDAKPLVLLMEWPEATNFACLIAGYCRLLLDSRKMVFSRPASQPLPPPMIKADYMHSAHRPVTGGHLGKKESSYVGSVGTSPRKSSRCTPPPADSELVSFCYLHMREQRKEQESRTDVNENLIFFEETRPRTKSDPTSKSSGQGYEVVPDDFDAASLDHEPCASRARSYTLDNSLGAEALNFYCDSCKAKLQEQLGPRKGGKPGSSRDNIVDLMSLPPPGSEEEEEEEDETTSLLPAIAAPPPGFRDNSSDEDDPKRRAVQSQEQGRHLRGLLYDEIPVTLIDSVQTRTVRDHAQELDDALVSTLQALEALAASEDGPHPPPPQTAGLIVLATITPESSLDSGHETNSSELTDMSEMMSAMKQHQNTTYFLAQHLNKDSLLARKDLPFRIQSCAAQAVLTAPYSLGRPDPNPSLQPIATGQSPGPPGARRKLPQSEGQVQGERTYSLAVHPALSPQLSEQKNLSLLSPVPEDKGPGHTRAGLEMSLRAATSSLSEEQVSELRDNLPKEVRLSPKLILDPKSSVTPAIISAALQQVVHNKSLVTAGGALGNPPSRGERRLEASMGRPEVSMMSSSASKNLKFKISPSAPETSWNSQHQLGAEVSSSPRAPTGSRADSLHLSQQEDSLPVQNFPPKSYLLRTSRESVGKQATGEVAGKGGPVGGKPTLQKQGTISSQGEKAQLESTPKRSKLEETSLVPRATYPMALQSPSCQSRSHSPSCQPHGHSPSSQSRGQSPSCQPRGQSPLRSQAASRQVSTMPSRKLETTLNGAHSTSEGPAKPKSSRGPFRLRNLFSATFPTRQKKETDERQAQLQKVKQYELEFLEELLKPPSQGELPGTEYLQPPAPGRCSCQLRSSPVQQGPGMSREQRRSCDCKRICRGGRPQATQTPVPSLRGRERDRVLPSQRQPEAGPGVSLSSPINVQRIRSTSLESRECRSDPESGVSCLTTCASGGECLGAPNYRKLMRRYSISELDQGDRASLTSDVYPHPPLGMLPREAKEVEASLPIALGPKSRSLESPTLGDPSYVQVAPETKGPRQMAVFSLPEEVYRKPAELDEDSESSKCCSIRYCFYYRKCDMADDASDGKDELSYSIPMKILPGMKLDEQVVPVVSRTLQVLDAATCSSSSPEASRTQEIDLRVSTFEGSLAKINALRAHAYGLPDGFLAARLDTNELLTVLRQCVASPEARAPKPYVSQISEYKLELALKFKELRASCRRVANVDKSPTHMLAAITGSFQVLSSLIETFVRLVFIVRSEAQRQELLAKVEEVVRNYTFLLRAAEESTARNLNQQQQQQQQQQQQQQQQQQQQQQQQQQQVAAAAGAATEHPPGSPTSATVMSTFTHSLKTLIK
UniProt Q9H334: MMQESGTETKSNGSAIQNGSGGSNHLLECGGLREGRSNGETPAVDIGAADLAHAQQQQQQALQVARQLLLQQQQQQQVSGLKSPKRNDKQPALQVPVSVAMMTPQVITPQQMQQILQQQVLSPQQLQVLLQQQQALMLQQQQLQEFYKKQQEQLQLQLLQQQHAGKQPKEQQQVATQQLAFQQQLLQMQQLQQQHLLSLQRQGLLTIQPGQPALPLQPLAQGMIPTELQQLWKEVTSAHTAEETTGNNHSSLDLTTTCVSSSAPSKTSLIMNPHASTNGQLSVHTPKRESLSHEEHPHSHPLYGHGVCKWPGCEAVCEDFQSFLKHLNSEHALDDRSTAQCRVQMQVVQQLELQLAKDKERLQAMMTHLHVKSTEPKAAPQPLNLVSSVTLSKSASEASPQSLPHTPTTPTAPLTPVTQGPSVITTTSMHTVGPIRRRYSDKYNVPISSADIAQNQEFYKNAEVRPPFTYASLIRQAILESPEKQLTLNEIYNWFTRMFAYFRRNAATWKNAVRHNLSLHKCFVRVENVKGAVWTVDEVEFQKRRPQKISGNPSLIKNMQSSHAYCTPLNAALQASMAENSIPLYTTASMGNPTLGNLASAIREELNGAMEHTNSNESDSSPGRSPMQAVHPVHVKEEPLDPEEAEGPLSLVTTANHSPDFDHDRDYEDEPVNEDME
UniProt Q495W5: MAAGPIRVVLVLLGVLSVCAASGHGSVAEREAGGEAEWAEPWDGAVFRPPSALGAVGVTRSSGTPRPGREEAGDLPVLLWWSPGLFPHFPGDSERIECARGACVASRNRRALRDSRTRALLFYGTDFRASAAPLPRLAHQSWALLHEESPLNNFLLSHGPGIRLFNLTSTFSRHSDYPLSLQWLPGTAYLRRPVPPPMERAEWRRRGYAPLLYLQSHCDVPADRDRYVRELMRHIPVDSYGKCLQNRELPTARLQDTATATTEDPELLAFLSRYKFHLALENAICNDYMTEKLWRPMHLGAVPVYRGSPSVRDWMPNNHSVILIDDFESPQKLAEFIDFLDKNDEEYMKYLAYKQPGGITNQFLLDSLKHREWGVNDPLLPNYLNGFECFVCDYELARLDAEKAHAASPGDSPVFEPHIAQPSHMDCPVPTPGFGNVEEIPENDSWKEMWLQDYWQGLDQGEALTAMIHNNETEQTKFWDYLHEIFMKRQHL
UniProt Q8TAK5: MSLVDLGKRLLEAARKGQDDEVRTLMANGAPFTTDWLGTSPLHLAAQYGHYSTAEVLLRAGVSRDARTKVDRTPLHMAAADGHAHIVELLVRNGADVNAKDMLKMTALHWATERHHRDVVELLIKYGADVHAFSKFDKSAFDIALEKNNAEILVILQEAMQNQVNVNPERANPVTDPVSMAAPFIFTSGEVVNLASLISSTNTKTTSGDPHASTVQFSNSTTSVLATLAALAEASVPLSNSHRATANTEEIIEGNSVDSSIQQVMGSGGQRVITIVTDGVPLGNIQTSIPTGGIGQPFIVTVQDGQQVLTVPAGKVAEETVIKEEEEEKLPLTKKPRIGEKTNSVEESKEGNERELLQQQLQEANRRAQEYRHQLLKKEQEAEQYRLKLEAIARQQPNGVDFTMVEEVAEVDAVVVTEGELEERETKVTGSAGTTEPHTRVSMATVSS
UniProt Q9H840: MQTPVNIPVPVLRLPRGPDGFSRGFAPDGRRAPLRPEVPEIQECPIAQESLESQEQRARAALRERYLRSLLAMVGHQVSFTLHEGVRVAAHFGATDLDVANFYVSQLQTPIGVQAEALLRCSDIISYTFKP
UniProt Q8IVP5: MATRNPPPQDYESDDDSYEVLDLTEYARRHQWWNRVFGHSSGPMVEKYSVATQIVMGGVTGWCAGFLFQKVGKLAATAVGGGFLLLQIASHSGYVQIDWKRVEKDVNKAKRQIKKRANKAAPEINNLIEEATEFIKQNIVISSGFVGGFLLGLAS

Tubastatin A = compound: CN1CCc2c(c3ccccc3n2Cc2ccc(C(=O)NO)cc2)C1 [Tubastatin A]
Summary of the method: as §1

[1] = compound: CNC(=O)C1=CC=CC=C1NC2=NC(=NC=C2Cl)NC3=C(C=C(C=C3)N4CCOCC4)OC
Summary of the method: as §1

defactinib = compound: CNC(=O)c1ccc(Nc2ncc(C(F)(F)F)c(NCc3nccnc3N(C)S(C)(=O)=O)n2)cc1 [defactinib]
Summary of the method: as §1

[2] = compound: CNc1nc(-c2ccc3c(N)n[nH]c3c2)cc(N2C[C@@H](C(=O)NC3CCCCC3)CC[C@H]2C)n1
Summary of the method: as §1

alisertib = compound: COc1cc(Nc2ncc3c(n2)-c2ccc(Cl)cc2C(c2c(F)cccc2OC)=NC3)ccc1C(=O)O [alisertib]
Summary of the method: as §1

gefitinib = compound: COc1cc2ncnc(Nc3ccc(F)c(Cl)c3)c2cc1OCCCN1CCOCC1 [gefitinib]
Summary of the method: as §1

crizotinib = compound: C[C@@H](Oc1cc(-c2cnn(C3CCNCC3)c2)cnc1N)c1c(Cl)ccc(F)c1Cl [crizotinib]
Summary of the method: as §1

[3] = compound: C[C@H](C1=CC=C(C=C1)C(=O)NC2=C3C=CNC3=NC=C2)N
Summary of the method: as §1

duvelisib = compound: C[C@H](Nc1ncnc2nc[nH]c12)c1cc2cccc(Cl)c2c(=O)n1-c1ccccc1 [duvelisib]
Summary of the method: as §1

gandotinib = compound: Cc1cc(Nc2cc(CN3CCOCC3)c3nc(C)c(Cc4ccc(Cl)cc4F)n3n2)n[nH]1 [gandotinib]
Summary of the method: as §1

doramapimod = compound: Cc1ccc(-n2nc(C(C)(C)C)cc2NC(=O)Nc2ccc(OCCN3CCOCC3)c3ccccc23)cc1 [doramapimod]
Summary of the method: as §1

[4] = compound: Cc1cccc(CC(=O)N2CCc3c2ccc(-c2cn(C)c4ncnc(N)c24)c3F)n1
Summary of the method: as §1

encorafenib = compound: COC(=O)N[C@@H](C)CNc1nccc(-c2cn(C(C)C)nc2-c2cc(Cl)cc(NS(C)(=O)=O)c2F)n1 [encorafenib]
Summary of the method: as §1

[5] = compound: COC(=O)[C@H](CCSC)NC(=O)C1=C(C=C(C=C1)NC[C@H](CS)N)C2=CC=CC=C2
Summary of the method: as §1

[6] = compound: COc1cc2nc(-c3cc(F)ccc3O)nc(N[C@@H]3CNC[C@H]3C(C)(C)O)c2cc1OC
Summary of the method: as §1

lapatinib = compound: CS(=O)(=O)CCNCc1ccc(-c2ccc3ncnc(Nc4ccc(OCc5cccc(F)c5)c(Cl)c4)c3c2)o1 [lapatinib]
Summary of the method: as §1

pictilisib = compound: CS(=O)(=O)N1CCN(Cc2cc3nc(-c4cccc5[nH]ncc45)nc(N4CCOCC4)c3s2)CC1 [pictilisib]
Summary of the method: as §1

tozasertib = compound: Cc1cc(Nc2cc(N3CCN(C)CC3)nc(Sc3ccc(NC(=O)C4CC4)cc3)n2)n[nH]1 [tozasertib]
Summary of the method: as §1

bafetinib = compound: Cc1ccc(NC(=O)c2ccc(CN3CC[C@H](N(C)C)C3)c(C(F)(F)F)c2)cc1Nc1nccc(-c2cncnc2)n1 [bafetinib]
Summary of the method: as §1

Measured: log2 fold change

GDF15 (UniProt Q99988)
inactive: alvocidib -0.057 | Tubastatin A -0.058 | [1] -0.017 | defactinib -0.097 | [2] 0.15 | alisertib -0.073 | gefitinib 0.061 | crizotinib 0.001 | [3] 0.101 | duvelisib -0.096 | gandotinib 0.03 | doramapimod -0.035 | [4] 0.037

GFOD2 (UniProt Q3B7J2)
inactive: alvocidib 0.095 | Tubastatin A 0.11 | [1] -0.018 | defactinib -0.131 | [2] -0.116 | encorafenib 0.162 | [5] -0.015 | [6] -0.028 | lapatinib -0.026 | pictilisib -0.127 | [3] -0.188 | duvelisib 0.063 | gandotinib -0.108 | tozasertib 0.22 | bafetinib -0.037 | [4] 0.122

FRMPD3 (UniProt Q5JV73)
inactive: alvocidib -0.152 | Tubastatin A 0.077 | [1] -0.143 | defactinib -0.027 | alisertib 0.155 | [6] -0.051 | gefitinib 0.216 | lapatinib 0.07 | pictilisib -0.002 | [3] -0.245 | gandotinib 0.046 | bafetinib -0.296 | [4] 0.108

2 successive records from above:
GFOD2 (UniProt Q3B7J2)
inactive: alvocidib 0.095 | Tubastatin A 0.11 | [1] -0.018 | defactinib -0.131 | [2] -0.116 | encorafenib 0.162 | [5] -0.015 | [6] -0.028 | lapatinib -0.026 | pictilisib -0.127 | [3] -0.188 | duvelisib 0.063 | gandotinib -0.108 | tozasertib 0.22 | bafetinib -0.037 | [4] 0.122

FRMPD3 (UniProt Q5JV73)
inactive: alvocidib -0.152 | Tubastatin A 0.077 | [1] -0.143 | defactinib -0.027 | alisertib 0.155 | [6] -0.051 | gefitinib 0.216 | lapatinib 0.07 | pictilisib -0.002 | [3] -0.245 | gandotinib 0.046 | bafetinib -0.296 | [4] 0.108

Later entries

FOXP1 (UniProt Q9H334)
inactive: alvocidib -0.004 | Tubastatin A -0.101 | [1] 0.014 | defactinib -0.013 | [2] -0.021 | encorafenib 0.1 | [5] 0.01 | alisertib 0.007 | gefitinib -0.067 | pictilisib -0.079 | crizotinib -0.016 | [3] -0.003 | duvelisib 0 | gandotinib -0.095 | tozasertib -0.043 | doramapimod -0.045 | bafetinib -0.006 | [4] 0.042

FUT11 (UniProt Q495W5)
inactive: alvocidib 0.011 | Tubastatin A -0.055 | [1] 0.051 | encorafenib -0.159 | [5] 0.004 | alisertib 0.049 | [6] 0.26 | gefitinib 0.035 | lapatinib -0.027 | pictilisib 0.338 | crizotinib -0.015 | [3] 0.087 | gandotinib 0.041 | tozasertib -0.145 | doramapimod 0.004 | bafetinib 0.051 | [4] -0.054

GABPB2 (UniProt Q8TAK5)
inactive: alvocidib -0.084 | Tubastatin A -0.049 | [2] 0.173 | encorafenib 0.273 | [5] 0.067 | pictilisib -0.153 | crizotinib -0.013 | [3] -0.116 | duvelisib -0.056 | gandotinib -0.067 | tozasertib 0 | doramapimod 0.174 | bafetinib 0.107 | [4] 0.034

GEMIN7 (UniProt Q9H840)
inactive: alvocidib 0.028 | Tubastatin A 0.008 | alisertib 0.061 | gefitinib -0.011 | pictilisib 0.102 | crizotinib -0.034 | [3] -0.25 | gandotinib 0.079 | doramapimod -0.087 | bafetinib 0.001 | [4] 0.222

FUNDC1 (UniProt Q8IVP5)
inactive: alvocidib 0.031 | Tubastatin A 0.078 | [1] -0.194 | defactinib -0.154 | [2] -0.2 | encorafenib 0.024 | [5] 0.039 | alisertib -0.439 | [6] 0.023 | gefitinib -0.264 | lapatinib 0.074 | crizotinib 0.05 | [3] -0.363 | duvelisib 0.153 | gandotinib 0.148 | tozasertib 0.013 | doramapimod -0.089 | [4] 0.014

— the supplement of paper PMC10849652
